In patent publication US20220073525A1, “COMPOSITIONS FOR INHIBITING UBIQUITIN SPECIFIC PROTEASE 1” (FORMA Therapeutics, Inc., priority 2019, published 2022) one finds IC50 data, which are given here for one compound.

Amino acid sequences for entries named in this document (tags omitted).
UniProt O94782, whole entry: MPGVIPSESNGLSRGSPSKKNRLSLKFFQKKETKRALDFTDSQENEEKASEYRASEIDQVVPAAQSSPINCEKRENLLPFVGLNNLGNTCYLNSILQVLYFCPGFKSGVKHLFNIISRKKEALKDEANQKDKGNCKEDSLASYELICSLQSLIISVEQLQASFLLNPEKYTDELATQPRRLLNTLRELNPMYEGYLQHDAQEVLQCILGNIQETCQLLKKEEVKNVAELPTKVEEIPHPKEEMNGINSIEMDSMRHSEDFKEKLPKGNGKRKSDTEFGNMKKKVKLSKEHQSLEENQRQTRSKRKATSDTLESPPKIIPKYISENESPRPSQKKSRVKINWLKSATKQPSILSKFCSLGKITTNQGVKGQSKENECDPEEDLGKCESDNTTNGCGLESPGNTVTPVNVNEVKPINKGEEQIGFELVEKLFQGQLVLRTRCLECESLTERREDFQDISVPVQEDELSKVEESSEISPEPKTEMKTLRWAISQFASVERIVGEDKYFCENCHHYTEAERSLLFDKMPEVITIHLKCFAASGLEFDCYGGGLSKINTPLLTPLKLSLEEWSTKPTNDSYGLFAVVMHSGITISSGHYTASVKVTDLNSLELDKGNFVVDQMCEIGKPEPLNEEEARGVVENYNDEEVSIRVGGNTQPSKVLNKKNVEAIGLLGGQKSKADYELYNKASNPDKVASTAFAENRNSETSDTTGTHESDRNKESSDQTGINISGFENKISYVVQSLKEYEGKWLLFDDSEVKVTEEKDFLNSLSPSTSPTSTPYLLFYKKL
UniProt Q8TAF3, whole entry partner: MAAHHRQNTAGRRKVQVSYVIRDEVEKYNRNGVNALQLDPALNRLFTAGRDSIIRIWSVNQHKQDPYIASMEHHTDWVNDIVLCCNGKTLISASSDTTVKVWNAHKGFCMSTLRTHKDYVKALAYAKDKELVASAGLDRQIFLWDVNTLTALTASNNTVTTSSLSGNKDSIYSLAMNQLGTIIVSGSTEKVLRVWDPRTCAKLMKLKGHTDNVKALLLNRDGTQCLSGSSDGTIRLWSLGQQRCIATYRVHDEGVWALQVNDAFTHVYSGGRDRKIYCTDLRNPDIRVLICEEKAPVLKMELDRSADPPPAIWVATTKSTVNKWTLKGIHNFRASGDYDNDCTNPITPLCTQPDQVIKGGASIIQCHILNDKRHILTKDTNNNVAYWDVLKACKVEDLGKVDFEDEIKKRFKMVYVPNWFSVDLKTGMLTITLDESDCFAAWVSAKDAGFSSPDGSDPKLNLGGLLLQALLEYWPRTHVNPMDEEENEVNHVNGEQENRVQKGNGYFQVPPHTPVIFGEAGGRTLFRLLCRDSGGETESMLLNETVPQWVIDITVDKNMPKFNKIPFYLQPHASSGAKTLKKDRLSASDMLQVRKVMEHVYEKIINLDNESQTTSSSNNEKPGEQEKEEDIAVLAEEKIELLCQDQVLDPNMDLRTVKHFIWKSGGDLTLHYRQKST

Structures were worked out from names or drawings and are uncertain.

In the assay the target is USP1 (Homo sapiens, UniProt O94782). Kind of assay: Biochemical Assay for USP1 Inhibition (Ub-Rho 110 fluorescence). To be noted: Table 6, additional compounds; 30 min preincubation, Enzyme 0.025 nM, Substrate Ub-Rho 110 25 nM. Here is the method: The assay was performed in a final volume of 6 μL in assay buffer containing 20 mM Tris-HCl pH 8.0, (1 M Tris-HCl, pH 8.0 solution; Corning 46-031-CM), 1 mM GSH (L-glutathione reduced, Sigma-Aldrich, G4251-100G), 0.03% BGG (0.22 μM filtered, Sigma, G7516-25G), and 0.01% Triton X-100 (Sigma, T9284-10L). Nanoliter quantities of 10-point, 3-fold serial dilution in DMSO were pre-dispensed into 1536 assay plates (Corning, #3724BC) for a final test concentration of 25 μM to 1.3 nM, top to lowest dose, respectively. Concentration and incubation times were optimized for the maximal signal-to-background while maintaining initial velocity conditions at a fixed substrate concentration (<<Km). […] Plates were read using a kinetic protocol continuously for 11 min on the Envision (Perkin Elmer) or PheraSTAR (BMG), excitation at 485 nm and emission at 535 nm or excitation at 520 nm and emission at 590 nm. For all assay formats, data were reported as percent inhibition compared with control wells based on the following equation: % inh=100*([…]), where FLU=measured Fluorescence, AveLow=average Fluorescence of no enzyme control (n=32), and AveHigh=average Fluorescence of DMSO control (n=32). IC50 values were determined by curve fitting of the standard 4 parameter logistic fitting algorithm included in the Activity Base software package: TDBS XE Designer Model205. […]

Broadly, the IC50 is the concentration needed to halve the response being measured. Low readings indicate inhibition by little substance, high ones a need for much substance. `Cc1nc(-c2cccnc2C(C)C)c2n1CCN(c1ccc(-c3nc(C(F)(F)F)cn3C)cc1)CC2` displayed an IC50 of 1 to 10 µM.
